Results are given in words; binding and its absence hold for the method and conditions named. Some results given as binding are weak or reduced against the parent protein; the word gives no strength.
How the values were obtained:
filamin-A [1] = molecular target: T1, filamin-A (human, UniProt P21333 2-2647); test: immunofluorescence on fixed, permeabilized MDA-MB-231 cells
T1 construct: whole, on cells; Endogenous filamin-A of human cell lines; No purified filamin-A was used; also called FLNA; FLNa

Chains of the proteins cited; added tags and fusions are not shown. Residues count along the entry.
UniProt P21333, residues 2-2647: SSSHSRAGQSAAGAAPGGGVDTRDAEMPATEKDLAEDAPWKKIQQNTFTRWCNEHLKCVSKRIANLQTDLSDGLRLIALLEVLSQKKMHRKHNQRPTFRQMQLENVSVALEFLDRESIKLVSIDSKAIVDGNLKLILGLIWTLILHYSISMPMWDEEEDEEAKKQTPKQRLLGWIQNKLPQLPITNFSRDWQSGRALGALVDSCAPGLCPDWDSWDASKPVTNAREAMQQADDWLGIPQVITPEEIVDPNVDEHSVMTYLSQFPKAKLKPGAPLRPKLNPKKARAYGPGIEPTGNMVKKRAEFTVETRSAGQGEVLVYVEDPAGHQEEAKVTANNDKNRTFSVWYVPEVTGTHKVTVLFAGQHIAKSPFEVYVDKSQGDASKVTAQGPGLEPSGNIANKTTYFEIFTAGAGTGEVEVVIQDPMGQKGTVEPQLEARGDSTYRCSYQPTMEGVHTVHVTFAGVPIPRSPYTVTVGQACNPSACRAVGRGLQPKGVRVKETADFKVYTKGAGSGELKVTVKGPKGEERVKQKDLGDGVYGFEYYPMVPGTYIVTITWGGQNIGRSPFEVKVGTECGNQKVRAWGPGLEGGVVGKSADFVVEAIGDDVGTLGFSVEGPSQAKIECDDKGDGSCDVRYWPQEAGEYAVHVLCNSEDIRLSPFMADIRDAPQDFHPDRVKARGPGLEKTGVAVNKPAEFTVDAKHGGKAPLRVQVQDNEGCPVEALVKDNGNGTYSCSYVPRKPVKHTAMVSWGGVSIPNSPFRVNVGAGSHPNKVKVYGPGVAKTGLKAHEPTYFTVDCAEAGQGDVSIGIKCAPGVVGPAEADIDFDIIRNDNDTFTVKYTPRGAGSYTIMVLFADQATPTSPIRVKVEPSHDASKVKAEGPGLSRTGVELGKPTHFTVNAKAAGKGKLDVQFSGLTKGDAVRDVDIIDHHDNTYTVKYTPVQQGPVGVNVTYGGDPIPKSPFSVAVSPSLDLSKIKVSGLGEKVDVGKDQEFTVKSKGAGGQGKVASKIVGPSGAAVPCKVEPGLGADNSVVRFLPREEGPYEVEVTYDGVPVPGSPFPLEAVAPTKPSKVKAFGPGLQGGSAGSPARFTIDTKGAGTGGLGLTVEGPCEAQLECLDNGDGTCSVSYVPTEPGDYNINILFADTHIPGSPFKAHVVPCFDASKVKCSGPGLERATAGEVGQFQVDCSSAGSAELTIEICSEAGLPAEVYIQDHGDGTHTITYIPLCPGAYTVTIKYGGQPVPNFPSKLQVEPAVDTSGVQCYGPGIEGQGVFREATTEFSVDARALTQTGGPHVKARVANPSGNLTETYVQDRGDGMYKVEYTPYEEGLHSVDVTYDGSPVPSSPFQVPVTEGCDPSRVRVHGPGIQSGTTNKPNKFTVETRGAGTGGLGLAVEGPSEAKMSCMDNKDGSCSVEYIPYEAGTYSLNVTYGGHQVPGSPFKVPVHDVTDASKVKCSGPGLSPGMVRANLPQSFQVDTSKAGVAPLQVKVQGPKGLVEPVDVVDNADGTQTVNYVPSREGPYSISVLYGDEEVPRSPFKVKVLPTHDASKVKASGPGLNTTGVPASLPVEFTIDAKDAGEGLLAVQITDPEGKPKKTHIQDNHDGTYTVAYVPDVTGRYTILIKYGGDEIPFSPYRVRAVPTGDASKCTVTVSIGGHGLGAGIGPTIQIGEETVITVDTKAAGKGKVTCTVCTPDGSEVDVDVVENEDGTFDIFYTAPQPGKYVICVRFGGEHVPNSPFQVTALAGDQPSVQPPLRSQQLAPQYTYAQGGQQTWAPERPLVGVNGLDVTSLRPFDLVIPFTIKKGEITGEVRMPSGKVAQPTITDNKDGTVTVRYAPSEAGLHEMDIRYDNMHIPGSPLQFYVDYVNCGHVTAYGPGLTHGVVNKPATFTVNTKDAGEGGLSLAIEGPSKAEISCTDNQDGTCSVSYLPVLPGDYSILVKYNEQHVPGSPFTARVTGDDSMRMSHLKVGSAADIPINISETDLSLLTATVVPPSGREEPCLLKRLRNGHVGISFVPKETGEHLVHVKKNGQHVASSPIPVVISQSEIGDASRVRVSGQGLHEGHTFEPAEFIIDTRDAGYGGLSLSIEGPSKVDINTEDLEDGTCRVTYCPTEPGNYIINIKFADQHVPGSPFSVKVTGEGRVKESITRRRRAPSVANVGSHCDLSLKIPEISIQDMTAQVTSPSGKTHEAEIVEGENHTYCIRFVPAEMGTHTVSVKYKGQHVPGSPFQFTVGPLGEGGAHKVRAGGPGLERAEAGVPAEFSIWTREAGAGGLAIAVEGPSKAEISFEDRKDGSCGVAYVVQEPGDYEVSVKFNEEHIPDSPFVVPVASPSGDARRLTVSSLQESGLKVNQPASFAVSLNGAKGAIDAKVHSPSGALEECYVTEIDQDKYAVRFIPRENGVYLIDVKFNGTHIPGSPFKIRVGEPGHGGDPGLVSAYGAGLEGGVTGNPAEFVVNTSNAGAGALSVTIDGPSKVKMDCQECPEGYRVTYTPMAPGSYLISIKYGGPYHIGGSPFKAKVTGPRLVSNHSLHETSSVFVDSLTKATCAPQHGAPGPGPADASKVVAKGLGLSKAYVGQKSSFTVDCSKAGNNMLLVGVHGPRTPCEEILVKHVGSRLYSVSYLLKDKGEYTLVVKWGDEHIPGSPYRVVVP

filamin-A [2] = molecular target: T1, filamin-A; test: immunofluorescence, methanol fixation and 0.2% Triton, MDA-MB-231 cells
filamin-A [3] = molecular target: T1, filamin-A; test: immunofluorescence on MDA-MB-231 cells
filamin-A [4] = molecular target: T1, filamin-A; test: immunofluorescence, 2% paraformaldehyde fixation and 0.2% Triton, MDA-MB-231 cells

Measured: binding

B1: Anti-Filamin-A, human chimeric mAb (antibody, human IgG1, kappa, V domains shown)
VH: EVKLVESGGGLVQPGGSLKLSCAASGFTFSSYTMSWVRQTPEKRLEWVAYISNGGGSTYYPDTVKGRFTISRDNAKNTLYLQMSSLKSEDTAMYYCASDGLLRPFAYWGQGTLVTVSA
VL: DIVMTQSHKFMSTSVGDRVSITCKASQDVSIDVAWYQQKPGQSPKLLIYSASHRYTGVPDRFTGSGSGTDFTFTISGVQAEDLAVYFCQQHYSTPLTFGAGTKLELKR
binds: all assays above

Source: patent US20220025025A1 (IBEX BIOSCIENCES, published 2022)
